This passage reports binding results from publication doi:10.1101/2022.08.31.505651.

Results are given in words; binding and its absence hold for the method and conditions named. In cells and extracts the contact can be indirect. These calls come from enrichment with a bait or labelling near it, and not all partners need be listed. For some of these results: No binding means not detected with the bait.

Assay [1] deals with T1, NEK1 (endogenous) (human (endogenous in ARPE-19, HeLa, HEK293, U2OS)) (UniProt Q96PY6).
T1 sequence: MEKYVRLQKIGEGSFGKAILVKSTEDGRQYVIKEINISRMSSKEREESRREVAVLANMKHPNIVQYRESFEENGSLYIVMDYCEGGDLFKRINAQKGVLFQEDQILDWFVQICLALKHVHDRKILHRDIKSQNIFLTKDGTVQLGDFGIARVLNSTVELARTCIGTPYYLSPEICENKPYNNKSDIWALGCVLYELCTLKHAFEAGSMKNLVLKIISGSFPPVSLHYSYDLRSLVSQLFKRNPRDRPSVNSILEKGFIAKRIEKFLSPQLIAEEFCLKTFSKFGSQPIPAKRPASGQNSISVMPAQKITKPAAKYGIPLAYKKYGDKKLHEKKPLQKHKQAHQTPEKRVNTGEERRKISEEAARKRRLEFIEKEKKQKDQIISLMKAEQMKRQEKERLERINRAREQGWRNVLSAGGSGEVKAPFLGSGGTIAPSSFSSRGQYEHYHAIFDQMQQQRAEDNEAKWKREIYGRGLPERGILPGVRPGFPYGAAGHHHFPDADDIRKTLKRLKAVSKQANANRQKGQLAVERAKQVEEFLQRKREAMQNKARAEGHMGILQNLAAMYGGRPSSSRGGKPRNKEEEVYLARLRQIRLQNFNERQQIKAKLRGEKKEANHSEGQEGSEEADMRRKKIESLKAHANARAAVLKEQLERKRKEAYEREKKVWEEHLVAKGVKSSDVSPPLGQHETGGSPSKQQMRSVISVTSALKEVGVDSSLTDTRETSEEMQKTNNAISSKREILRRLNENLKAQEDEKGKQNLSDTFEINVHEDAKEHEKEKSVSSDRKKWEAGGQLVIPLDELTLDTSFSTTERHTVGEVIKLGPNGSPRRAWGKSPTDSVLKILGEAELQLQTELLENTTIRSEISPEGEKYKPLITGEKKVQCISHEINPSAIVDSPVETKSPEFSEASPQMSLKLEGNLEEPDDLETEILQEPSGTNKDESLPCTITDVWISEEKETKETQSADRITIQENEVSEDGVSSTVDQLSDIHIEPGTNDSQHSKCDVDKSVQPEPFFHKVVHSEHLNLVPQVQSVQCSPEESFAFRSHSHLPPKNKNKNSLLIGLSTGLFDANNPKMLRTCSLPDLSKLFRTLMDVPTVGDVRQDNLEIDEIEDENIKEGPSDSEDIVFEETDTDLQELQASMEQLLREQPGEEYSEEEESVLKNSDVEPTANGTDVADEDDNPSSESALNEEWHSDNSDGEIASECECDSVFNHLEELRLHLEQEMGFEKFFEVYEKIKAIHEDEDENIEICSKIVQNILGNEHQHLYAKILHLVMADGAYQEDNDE
Kind of assay: affinity purification with mass spectrometry.

Assay [2] deals with T2, C21ORF2 (endogenous) (human (endogenous in ARPE-19, HeLa, HEK293, U2OS)) (UniProt O43822).
T2 sequence: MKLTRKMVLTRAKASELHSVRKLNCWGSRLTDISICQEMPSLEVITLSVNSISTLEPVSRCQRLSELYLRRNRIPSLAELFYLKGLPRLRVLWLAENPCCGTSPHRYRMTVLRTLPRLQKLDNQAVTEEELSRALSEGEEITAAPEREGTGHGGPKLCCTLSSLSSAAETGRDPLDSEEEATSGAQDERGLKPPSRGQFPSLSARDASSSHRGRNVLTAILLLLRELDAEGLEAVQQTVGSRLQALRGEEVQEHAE
Kind of assay: affinity purification with mass spectrometry.

With “C19ORF53 (endogenous) (from UniProt Q9UNZ5 1-99)”, the binding result in assay [1] is “no binding”. With “COL8A1 (endogenous) (from UniProt P27658 28-744)”, the binding result in assay [1] was “no binding”.

B1: C21ORF2 (endogenous) (protein, UniProt O43822-1 1-256)
chain: T2 sequence
Consider B1, for which, in assay [1], the binding entry was “binds”.

B2: NEK1 (endogenous) (enzyme, UniProt Q96PY6-3 1-1286)
chain: T1 sequence
For the molecule B2, the binding result in assay [2] is listed as “binds”.
